About 1,400 (4.5%) of roughly 31,000 sequences were called active.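 Rule for the calls: active = median seed-adjusted z-score above 1 or below -1; inactive = the rest.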 The list shows a part of the results.
test: Novel Modifiers of Survival Motor Neuron (SMN) Protein: Gene Identification via Genome-wide siRNA Screen; settings: HEK293T SMN2-luciferase reporter, siRNA knockdown, 72 h; actives lie on both sides;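 note: luminescence tracks full-length SMN protein made from the SMN2 reporter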
In short: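 siRNA screen, 10418 genes ×3 siRNAs; 1 pmol/well, lipid reverse transfection into HEK293T SMN2-luc reporter line. 72 h, 37 °C, 5% CO2; ONE-Glo readout. Data: neg-ctrl normalized, log10, MAD; hit = MAD >1.0 or < -1.0.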

Q: For CAUCAGGUCUGACAAAACATT against PCGF2, which median seed-adjusted z-score is on record?
A: inactive: 0.187

Q: Which median seed-adjusted z-score does the source give for GGAUGUUUUGACUACACUATT against ACADSB here?
A: inactive: -0.436

Q: For CUUGCACUCCUGUCCAUAATT against AP3B1, which median seed-adjusted z-score is on record?
A: inactive: 0.31

Q: For GGAAAUUGUGGAUAUGAUUTT against SULT1C2, which median seed-adjusted z-score is on record?
A: inactive: 0

Q: For GACCAGAGCUGAUUGAGUATT against ACTN4, which median seed-adjusted z-score is on record?
A: inactive: 0

Q: For GGGCGAGAUUAUGAGUACATT against HNRNPUL2, which median seed-adjusted z-score is on record?
A: inactive: -0.0273

Q: Which median seed-adjusted z-score does the source give for CACCCUGAUUCAUCCGAGATT against TRPC4 here?
A: inactive: -0.272

Q: Which median seed-adjusted z-score does the source give for AGUUCUUCCUAAUCCGAGATT against DOLPP1 here?
A: inactive: 0.00977

Q: With GAGAUGCUGUGGUCACGUATT against SLC12A2 as the sequence, how does the median seed-adjusted z-score read?
A: inactive: -0.4

Q: For GAUGAUGACAAGUUUGAUATT against COQ5, which median seed-adjusted z-score is on record?
A: inactive: -0.0292

Q: Which median seed-adjusted z-score does the source give for CCUAUGCCUUCAUACCAUUTT against CYP4Z1 here?
A: inactive: -0.139

Q: For CCAGAUUGAUGUCAUGUAUTT against BMI1, which median seed-adjusted z-score is on record?
A: inactive: 0

Q: Which median seed-adjusted z-score does the source give for CAGAGUACCUUGUCGUGUATT against TNC here?
A: inactive: -0.253

Q: For AGGCAGUCCAUGUCAUCUATT against CXCR4, which median seed-adjusted z-score is on record?
A: inactive: -0.347

Q: Which median seed-adjusted z-score does the source give for GGAACAAGAGUGGACGGAATT against PIAS3 here?
A: inactive: -0.216

Q: For GGACCGCUGUUGUUCCAUUTT against ZNF217, which median seed-adjusted z-score is on record?
A: inactive: -0.872

Q: With CAUCAUCACAUGGAACGAATT against ACVR2B as the sequence, how does the median seed-adjusted z-score read?
A: inactive: 0.824

Q: For CUAUGAUCUCAACCAAAUATT against CD248, which median seed-adjusted z-score is on record?
A: inactive: -0.0191

Q: For CUCCUAUGGUUGGUCCUUUTT against CACNG3, which median seed-adjusted z-score is on record?
A: inactive: -0.189

Q: Which median seed-adjusted z-score does the source give for CAACACCUCCAGAAUACAATT against CDR2 here?
A: inactive: -0.37

Q: For GCACUCCCAAGAUUGAUAATT against RBPJ, which median seed-adjusted z-score is on record?
A: inactive: -0.452

Q: With GCUAUAAUCCUUAUGCGUATT against PDCD6IP as the sequence, how does the median seed-adjusted z-score read?
A: inactive: 0

Q: With GUAUCAUCACGUGGGCAAATT against PGRMC1 as the sequence, how does the median seed-adjusted z-score read?
A: inactive: 0.124

Q: With GGGAAUCAGAUAGAACUUATT against SDHC as the sequence, how does the median seed-adjusted z-score read?
A: inactive: 0.00895

Q: With GCGAAAGUCUUAAUAACUATT against PCDHGA6 as the sequence, how does the median seed-adjusted z-score read?
A: inactive: 0.0559

Q: For GCUUAACGACUGCUAUAAATT against AKAP6, which median seed-adjusted z-score is on record?
A: inactive: -0.0978

Q: For GCGAGGCAGUUUAUGAGUUTT against CACNA1G, which median seed-adjusted z-score is on record?
A: inactive: 0.436

Q: For UCACCUUUCUGUCAGCGAATT against PCDHGC5, which median seed-adjusted z-score is on record?
A: inactive: -0.0264

Q: Which median seed-adjusted z-score does the source give for CCAGCACUAAGGAAGCCCATT against PLIN here?
A: inactive: 0.166

Q: For CAAAGAUUCUAGAGGACAATT against PDHB, which median seed-adjusted z-score is on record?
A: inactive: -0.478

Q: With AGUUCGACCUCUACACCAATT against MIOX as the sequence, how does the median seed-adjusted z-score read?
A: inactive: 0.14

Q: Which median seed-adjusted z-score does the source give for GGAGCAAUACAGACCAAGATT against ABCC8 here?
A: inactive: 0.24

Q: With GCAACACGUUUGAAAUGAATT against ETV6 as the sequence, how does the median seed-adjusted z-score read?
A: inactive: 0.0216

Q: For CUUGCGCAGUGGAAAAUGATT against TRAK1, which median seed-adjusted z-score is on record?
A: inactive: 0.298

Q: For GGGAAGCACUGGUCGAAGATT against DTD1, which median seed-adjusted z-score is on record?
A: active: -1.58

Q: For GACGGUCCAUGAUGCUAUATT against SLC26A4, which median seed-adjusted z-score is on record?
A: inactive: 0.274

Q: For CUCUGACUCUUGCAACUGATT against CCT4, which median seed-adjusted z-score is on record?
A: inactive: -0.413

Q: Which median seed-adjusted z-score does the source give for GGAGUCAGAUCUUCGUAAATT against TJP2 here?
A: inactive: 0.0668

Q: With GCUUCACUGAUACCCGGAATT against EEF2 as the sequence, how does the median seed-adjusted z-score read?
A: inactive: -0.159

Q: With CCAUUAUCGCUGUCUUCUATT against CXCR7 as the sequence, how does the median seed-adjusted z-score read?
A: inactive: -0.511

Q: With GAACAGGAUUGGUCAGCUATT against GGA2 as the sequence, how does the median seed-adjusted z-score read?
A: inactive: -0.142

Q: For GCCUGUCCUUUGUAAUGCUTT against CYP8B1, which median seed-adjusted z-score is on record?
A: inactive: 0

Q: For GGGUACACCUAUCACAACATT against PCDH15, which median seed-adjusted z-score is on record?
A: inactive: -0.712

Q: Which median seed-adjusted z-score does the source give for GCCCUAGAAAGGUCACUGATT against AKR1CL1 here?
A: inactive: 0.488

Q: For GGUACGAGAUGACAAGACATT against PPFIA1, which median seed-adjusted z-score is on record?
A: inactive: 0.312

Q: Which median seed-adjusted z-score does the source give for CCACUACUCUUUGUCCAUATT against TRIM6 here?
A: inactive: -0.137

Q: Which median seed-adjusted z-score does the source give for GCACUGGGUAGGUUGCAGATT against NT5C1A here?
A: inactive: -0.448

Q: For CCAUAUUGGGAUGAUAUUUTT against CAMKV, which median seed-adjusted z-score is on record?
A: inactive: -0.193

Q: For GGAGGCUGCAGAUCUGGUATT against NDUFS7, which median seed-adjusted z-score is on record?
A: inactive: -0.386

Q: Which median seed-adjusted z-score does the source give for CUAGUUCGAUGGAUAAGUATT against PTPN13 here?
A: inactive: 0.0682

Q: For AGAAGUGUCUGUAUCAGAATT against GEM, which median seed-adjusted z-score is on record?
A: inactive: 0.018

Q: Which median seed-adjusted z-score does the source give for CAAGGAUGGUAAUAGCUGUTT against POLG here?
A: inactive: 0

Q: Which median seed-adjusted z-score does the source give for GCUCCUUCCUGAGAGCAAATT against PYCR1 here?
A: inactive: -0.171

Q: With GCAUGCAGCUUCUACCGUUTT against NOP58 as the sequence, how does the median seed-adjusted z-score read?
A: inactive: 0.101

Q: Which median seed-adjusted z-score does the source give for GGAUGUAGGCUAUCCGGAATT against USP36 here?
A: inactive: -0.147

Q: Which median seed-adjusted z-score does the source give for CCGCUGAACCUGUUGAAGATT against SGMS2 here?
A: inactive: -0.492

Q: With CCAGCUUUCGAAAAUCAUUTT against USF2 as the sequence, how does the median seed-adjusted z-score read?
A: inactive: 0.352

Q: Which median seed-adjusted z-score does the source give for CUAUGAAACUGGGAGUAAATT against CHMP5 here?
A: inactive: 0

Q: For GCUUUUAUCCUAGACAUCATT against PAQR8, which median seed-adjusted z-score is on record?
A: inactive: 0

Q: Which median seed-adjusted z-score does the source give for CAACCCUUCUCUGUCCAUUTT against UCN here?
A: inactive: -0.472

Q: Which median seed-adjusted z-score does the source give for CCGAAGAACCUGAAUUGGATT against ZDHHC23 here?
A: inactive: -0.536

Q: Which median seed-adjusted z-score does the source give for GCUUCGCAUUUGAUGGAAATT against IL20RA here?
A: inactive: -0.646

Q: For UCACAUAUCUCGACGGCUATT against ANP32A, which median seed-adjusted z-score is on record?
A: inactive: 0.377

Q: With GGGCGAAGCUUCAACCAGATT against ZNF498 as the sequence, how does the median seed-adjusted z-score read?
A: inactive: -0.476

Q: For GAGACUAUGUAAAGAAAGATT against CASP4, which median seed-adjusted z-score is on record?
A: inactive: -0.564

Q: With CCUGUUCUGUGACAACCAUTT against EDC4 as the sequence, how does the median seed-adjusted z-score read?
A: inactive: 0

Q: Which median seed-adjusted z-score does the source give for ACGCUGUCCUGGUUCUUCATT against DGAT2L3 here?
A: inactive: 0.247

Q: With AGAAUGCUCUCAUCACUCATT against POMT1 as the sequence, how does the median seed-adjusted z-score read?
A: inactive: 0.327

Q: For GAAGAUAUUGGAGACACAGTT against NUDT6, which median seed-adjusted z-score is on record?
A: inactive: 0.281
